US8586318B2, “Restricted access media and methods for making restricted access media” (Board of Regents of the University of Nebraska, priority 2008, dated 2013)
For at least one compound, name, drawing or mass did not settle the structure.

Key:
[1] = test system: anti-fluorescein antibodies; assay: Ultrafast extraction on anti-fluorescein RAM column, flow-based; type: binding, mouse
Protocol: For chromatographic studies, 200 μL injections of samples containing 0.5 nM fluorescein or 3 nM of fluorescein-BSA were made at flow rates ranging from 0.1-1.0 mL/min. The injections were performed at room temperature using 0.067 M potassium phosphate buffer (pH 7.4) as the application buffer. Two or three replicate injections were made at each flow rate onto columns containing the anti-fluorescein IA-RAM support or the corresponding control support. […] The fraction of extracted fluorescein was calculated by comparing the areas of the non-retained peaks to those obtained using a control column. […] The retained species were eluted between studies by washing the column with a 0.067 M potassium phosphate buffer (pH 2.5) for 20 minutes. Elution was followed by a column regeneration step by applying 0.067 M phosphate application buffer (pH 7.4) for 10 minutes before each new sample injection. The RAM, specifically an IA-RAM made using anti-fluorescein antibody, was tested for use in a flow-based system for the selective, ultrafast extraction of fluorescein versus a fluorescein-BSA conjugate. This was accomplished by comparing the results obtained with a RAM column to results for a control column containing only diol silica.

[2] = test system: anti-fluorescein antibodies; assay: Static binding of fluorescein or fluorescein-BSA to anti-fluorescein RAM support; design: species or system mouse; conditions: 100 Å silica
Protocol: The binding properties of the anti-fluorescein IA-RAM support were initially determined before and after digestion by reacting this support with a known excess of fluorescein (sodium salt, MW=376 Da) or fluorescein-BSA conjugate (average MW=69.5 kDa). Studies were performed using anti-fluorescein antibodies covalently linked to Nucleosil Si-100 using the hydrazide-activation method. A 2 mg portion of the desired anti-fluorescein support was incubated with shaking in 1 mL of a 0.040 μg/mL fluorescein solution or 1 mL of 20 μg/mL fluorescein-BSA solution in 0.1 M potassium phosphate buffer (pH 7.4) at 4° C. for 30 minutes. The mixtures were centrifuged and the supernatant was analyzed for fluorescein or fluorescein-BSA content based on the fluorescence of the solutions. Standard solutions that contained 0.002-2.0 μg/mL fluorescein or 1-30 μg/mL of the fluorescein-BSA conjugate in 0.10 M potassium phosphate buffer (pH 7.4) were also analyzed. The amount of fluorescein or fluorescein-BSA bound to the anti-fluorescein IA-RAM supports was determined by comparing the final and initial concentrations of fluorescein or fluorescein-BSA that remained in solution. […] The fluorescein or fluorescein-BSA that was bound by anti-fluorescein antibodies was determined by determining the amount of the analytes that remained in solution after the incubation step.

O=C1OC2(c3ccc(O)cc3Oc3cc(O)ccc32)c2ccccc21 [fluorescein] was tested, and the “extracted by anti-fluorescein RAM column” value ([1]; contact time 0.9 s) was 80%, the “extracted by anti-fluorescein RAM column” value ([1]; contact time of 1.2 s) was 90% and the “retention on anti-fluorescein RAM column (in words)” value ([1]; injected at 0.1 mL/min) was “quantitatively extracted”. For the same compound, the “original binding capacity of the covalently linked antibodies” value ([2]; before papain treatment, hydrazide method, 30 minutes incubation) was 0.97 (±0.02) μg/g silica and the “decrease of binding capacity after treatment with papain” value ([2]; papain 90 minutes at 37° C., 1:100 (w/w)) was 47 (±2) %.
